Drawing on paper PMC4666660, this text covers binding for three molecules.

Results are given in words; binding and its absence hold for the method and conditions named. In cells and extracts the contact can be indirect. Some entries that bind do so weakly or less than the wild type. For part of these data: Tags and fused reporters may be left off the sequences shown.

Test [1] concerns the target T1, mCherryV5-Med22 (Drosophila) (UniProt Q9V439).
T1 sequence: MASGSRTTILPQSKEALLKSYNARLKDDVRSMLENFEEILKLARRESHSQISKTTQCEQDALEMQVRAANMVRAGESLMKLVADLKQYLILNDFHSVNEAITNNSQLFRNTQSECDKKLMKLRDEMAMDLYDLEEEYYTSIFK
In words: co-IP; testis extracts of V5-MED22 or y.w. males, 200 pairs of testes per IP; immunoprecipitated with anti-V5, blotted with anti-MED26 or anti-MED17.

A further test deals with T2, TOPI-6MYC (Drosophila) (UniProt Q9VH70).
T2 sequence: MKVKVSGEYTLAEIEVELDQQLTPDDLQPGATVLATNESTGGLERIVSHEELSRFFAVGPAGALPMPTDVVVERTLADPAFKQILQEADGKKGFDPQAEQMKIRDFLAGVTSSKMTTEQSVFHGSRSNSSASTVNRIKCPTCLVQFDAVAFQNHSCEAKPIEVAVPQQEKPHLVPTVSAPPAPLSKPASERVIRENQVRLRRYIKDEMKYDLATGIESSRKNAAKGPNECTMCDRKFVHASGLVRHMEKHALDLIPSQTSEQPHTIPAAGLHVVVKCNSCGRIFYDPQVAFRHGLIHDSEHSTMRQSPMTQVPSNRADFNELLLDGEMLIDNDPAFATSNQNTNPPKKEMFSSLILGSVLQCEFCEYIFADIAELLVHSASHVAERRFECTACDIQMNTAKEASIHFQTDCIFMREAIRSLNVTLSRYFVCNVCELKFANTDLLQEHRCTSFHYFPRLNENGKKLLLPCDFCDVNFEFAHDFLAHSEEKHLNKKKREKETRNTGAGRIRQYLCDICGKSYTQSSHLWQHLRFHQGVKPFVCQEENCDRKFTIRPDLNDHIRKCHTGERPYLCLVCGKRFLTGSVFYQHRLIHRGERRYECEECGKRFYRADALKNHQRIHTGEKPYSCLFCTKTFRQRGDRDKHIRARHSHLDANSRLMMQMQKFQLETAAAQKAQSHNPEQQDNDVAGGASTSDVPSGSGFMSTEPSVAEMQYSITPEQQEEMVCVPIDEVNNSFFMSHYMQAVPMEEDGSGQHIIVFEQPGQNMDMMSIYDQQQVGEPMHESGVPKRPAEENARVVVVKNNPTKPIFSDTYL
In words: co-IP; S2 cell extracts coexpressing MED22-3HA with or without the 6MYC-tagged partner; immunoprecipitated with anti-MYC, blotted with anti-HA.

B1: MED17 (protein, UniProt Q9VEC1 1-642)
chain: MSNSVNISVETTCENQIREIGYDGTELYQPPPTLSESLAKCAARIDFSKTSLDDLKKEEKSAAAAADEDKDATQFQESLWPWDAVRNKLKDALTEICVLSDVISIAKDKRYLVLDPLLEEADDTKPIVQVYSRKKAISQAAQVLLSGAERLRNAHSEQRNRNVSDFHIELLRLRQNWRLKKVSNAIIGDLSYRTAGSKFGMSGTFEVTKAEETGDEDTASSSNSSSSVSGNNGMQLKASSALRVIVPAELQGVAYIKVITQKDQEDLCTAQLNLMGHGPNITAQVGVWQKTLEFAQNVLFCKELFAQLAREAIQLQAPIPHVVIGNQIRATLLPNIQLIISLCHSTTFDSSQPAPINDHDHVLEHSLHQLLREVHYKNSHHPFPHPASAPLGPTKKRMLAGPMAADRETLLDMTKSQTILEQIIAQAQHIFMRKRTQYVLDTLARDVKDPQIVSHWNAMNSPTMSCVKINIVTHGYDAIGRTSLVIHVKERSLKCICRDGRVMRLSYEPQELRDLILCQINSHQISCLISLARCMSWTVLSNSNHLGIGKVEPLGNASSCLLASPNSDRMIAVQIRCDPQIDVKVYIARSPRQDFFPSPLVPEKLWENLGGTFKEVRFDKIEGKSFLNKMEFLMASLTSNTA
Consider B1, for which the binding entry in test [1] was “binds”.

B2: MED26 (protein, UniProt Q9V4F9 1-1483)
chain: MNQIEIQELTTHLSQALDQNYDVVNMDAVLCVICALEGTTITKEQLEATRLAKYINQLRRRTKNEHLARRAKSLLKKWREMVGIQQTATENLAHPSQISSSQPALDLVKSPITSFITEPIAPSQQIVSDLHSNIDSAEPPLSGEHTLLHPNFSNLVNSIKDSDRHENIAITTLHTHKDRRHSHSIRSCHVASPQPIVIDHSVNSVINLTDDSTVKINEASVVIDIASDSDENDNNGSLNPKKLNSIVPAPLPIPSTPSSRQRKLKKEKRSKEREGQVATNTRFGAKASDGFQQAALTTDSEIFSLSNSSMSSIVSGDATSSYSQNKSRLNSNELTFTGRFKAVDHLFRSTESGKHKIDEYSAYDSNASCSRLSPSTVDEVKKAEHLFDAQLTNTTANQIPMSAVSIGYESNTRHEYLESDSPSQIPKRRGRKKGSKGVDALIAKESSSLSQQIFFGGSTVKKVKTTKELFNEIQSRKLSVSMQSSASNLSNSSTNRDLPSHTTFPRQTSSCSDTSMNSPHILETLSGSAIFASKIDDLGNTDSDTVTSDPSHDSNKSQEIKECTSLDSNSNSIQSLPLANNRENLIPTNVNDITTQLMHLIHSLNSPLSEIEIERVYQEKIIPCTCIVIEGVQGTLGESNNSTLDEQSYNAKISLNSKDNLSCHNQDNYSTSQRSVNGEVIDTQPKLVKSIFDLDFDDNDDPLYFIMDEIQKPIARADELKNNKSDTKNINFGASAQNASLNIIHFNDDAQQDNSNQERGKNETQNAIPAFTVHEDPDCLARQRFYIQTNKVTSFHINALHNYYIPNINGNWDSVESFTSFQSEHTIMDTMESYTVTNGADVVPKYGLLTSDRIRKDLSSLKSIKPYRVKNFTSLISPFLGVAKCLPTCRRARRRFKNFVNSSTANDKISNNFESLENMKTSFKNCNPLNVKIDGTTSAIYSHNENHVPMQVNTNVEQLPPSQSFSSNAISYNLLKLADDKVCHDGISDKSSNTGCQGNSPYSSSSSSSYSGRKEDQHIITKNLQNKNIQLNSRKSDMKRRKRIYLENDSKKKKHYRKRIKTAVNRTFSNLHRNLYSIDSENGMKNDYKNEYGNSNNEEYAIVQRPAGDGENCSNHIVLTIKKTPSKINSPANSMTAFSPPSTSDGANLQKSILDLRLEDTNISQSITEIPQKKDLSKTDRIVHQSRSSAYRRIFRKPDKSQTKFIDLDLKHLFHLKANSPCISANAKLHNKLFFPHELSRDNTSGIRERLINYSSSSSSSYDDDSEVENTSFLKKANVNKFSASNNRNLKTETETCAATAISEFKFESDEDSILTSLGDSDIDIQDEIQVINDKVDYCNDFQNNKMLESFNSIFVDSLRTNTKNASDNMGSSAHITSLESLKPENADAITRYCNNNNLGVNLSNELSNISAKPLKSFDSTMKLPSLGIEHCTGIKTSSDMASTNIAEKKLTRIQQFKEWHQVLQLRSYNNEPLIVLPYVLLE
On to B2, for which the binding entry in test [1] was “binds”.

B3: MED22-3HA (protein, UniProt Q9V439 1-143)
chain: T1 sequence
Regarding B3, in the test with TOPI-6MYC (Drosophila), the binding result was “binds”.
